From the supplement of paper PMC10849652
This is one part of the list.

The chains behind the UniProt entries cited, without tags or fusion partners. Where a name states a change or a piece, a line headed by the entry shows the natural chain unless it says otherwise.
UniProt P57772: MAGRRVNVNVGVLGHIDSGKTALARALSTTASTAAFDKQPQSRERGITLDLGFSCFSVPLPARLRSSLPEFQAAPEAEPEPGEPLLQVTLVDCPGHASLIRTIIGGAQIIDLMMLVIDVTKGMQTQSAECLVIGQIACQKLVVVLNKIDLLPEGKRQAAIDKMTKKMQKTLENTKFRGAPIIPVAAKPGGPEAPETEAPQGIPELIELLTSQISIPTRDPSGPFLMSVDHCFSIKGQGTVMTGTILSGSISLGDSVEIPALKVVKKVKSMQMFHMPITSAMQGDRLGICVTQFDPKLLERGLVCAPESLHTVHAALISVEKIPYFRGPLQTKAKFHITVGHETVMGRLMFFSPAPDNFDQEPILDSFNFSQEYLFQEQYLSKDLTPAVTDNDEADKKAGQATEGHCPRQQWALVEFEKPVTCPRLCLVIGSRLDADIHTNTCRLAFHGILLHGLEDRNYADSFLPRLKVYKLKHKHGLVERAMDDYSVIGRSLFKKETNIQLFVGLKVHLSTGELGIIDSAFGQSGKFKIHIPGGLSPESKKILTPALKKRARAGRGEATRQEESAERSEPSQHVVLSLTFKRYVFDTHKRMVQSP
UniProt P41091, whole entry, looked up: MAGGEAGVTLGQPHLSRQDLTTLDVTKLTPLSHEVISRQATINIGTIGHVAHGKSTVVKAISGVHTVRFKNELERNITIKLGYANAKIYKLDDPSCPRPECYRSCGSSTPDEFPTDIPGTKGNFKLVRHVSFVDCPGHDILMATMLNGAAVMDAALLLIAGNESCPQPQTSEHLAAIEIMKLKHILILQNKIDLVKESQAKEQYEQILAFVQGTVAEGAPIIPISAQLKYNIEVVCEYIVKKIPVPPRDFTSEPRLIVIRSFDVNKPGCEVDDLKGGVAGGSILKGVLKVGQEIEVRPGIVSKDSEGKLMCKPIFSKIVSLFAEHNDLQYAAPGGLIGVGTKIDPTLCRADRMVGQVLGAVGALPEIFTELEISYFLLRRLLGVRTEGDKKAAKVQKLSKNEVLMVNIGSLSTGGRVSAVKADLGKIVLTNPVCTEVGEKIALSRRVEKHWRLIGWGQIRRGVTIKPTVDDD
UniProt Q9H4M9: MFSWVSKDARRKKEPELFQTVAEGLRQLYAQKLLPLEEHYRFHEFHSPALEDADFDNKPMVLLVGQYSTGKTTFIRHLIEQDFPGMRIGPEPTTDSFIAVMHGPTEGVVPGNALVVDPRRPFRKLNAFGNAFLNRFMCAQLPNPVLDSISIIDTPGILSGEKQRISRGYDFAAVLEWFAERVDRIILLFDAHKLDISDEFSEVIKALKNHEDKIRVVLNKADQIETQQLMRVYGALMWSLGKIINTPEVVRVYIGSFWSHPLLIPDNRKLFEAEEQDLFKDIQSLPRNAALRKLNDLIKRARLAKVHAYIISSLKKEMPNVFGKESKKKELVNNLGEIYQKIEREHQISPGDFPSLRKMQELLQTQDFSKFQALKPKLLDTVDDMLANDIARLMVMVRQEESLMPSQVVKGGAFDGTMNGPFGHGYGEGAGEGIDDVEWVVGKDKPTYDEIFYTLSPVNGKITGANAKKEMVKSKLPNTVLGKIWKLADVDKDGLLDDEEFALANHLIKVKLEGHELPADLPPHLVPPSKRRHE
UniProt P05198, whole entry, looked up: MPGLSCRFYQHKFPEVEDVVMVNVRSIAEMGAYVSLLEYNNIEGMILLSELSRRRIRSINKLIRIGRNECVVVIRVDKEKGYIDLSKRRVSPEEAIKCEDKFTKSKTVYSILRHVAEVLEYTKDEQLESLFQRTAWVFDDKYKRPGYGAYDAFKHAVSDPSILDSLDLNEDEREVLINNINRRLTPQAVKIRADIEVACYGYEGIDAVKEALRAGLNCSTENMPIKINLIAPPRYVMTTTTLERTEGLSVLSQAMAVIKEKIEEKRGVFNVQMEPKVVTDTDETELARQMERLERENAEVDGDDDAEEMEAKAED
UniProt P38919, whole entry, looked up: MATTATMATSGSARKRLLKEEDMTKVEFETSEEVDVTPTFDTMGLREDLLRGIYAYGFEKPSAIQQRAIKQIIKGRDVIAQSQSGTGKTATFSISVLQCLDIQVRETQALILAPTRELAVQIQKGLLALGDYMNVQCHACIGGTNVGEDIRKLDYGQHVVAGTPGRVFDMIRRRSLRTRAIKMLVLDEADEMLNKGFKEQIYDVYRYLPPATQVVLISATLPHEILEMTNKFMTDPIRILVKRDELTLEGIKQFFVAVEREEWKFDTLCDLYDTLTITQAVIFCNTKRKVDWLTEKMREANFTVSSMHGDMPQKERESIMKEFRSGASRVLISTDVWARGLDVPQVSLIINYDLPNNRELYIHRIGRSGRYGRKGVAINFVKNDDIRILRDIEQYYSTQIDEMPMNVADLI
UniProt P20042, whole entry, looked up: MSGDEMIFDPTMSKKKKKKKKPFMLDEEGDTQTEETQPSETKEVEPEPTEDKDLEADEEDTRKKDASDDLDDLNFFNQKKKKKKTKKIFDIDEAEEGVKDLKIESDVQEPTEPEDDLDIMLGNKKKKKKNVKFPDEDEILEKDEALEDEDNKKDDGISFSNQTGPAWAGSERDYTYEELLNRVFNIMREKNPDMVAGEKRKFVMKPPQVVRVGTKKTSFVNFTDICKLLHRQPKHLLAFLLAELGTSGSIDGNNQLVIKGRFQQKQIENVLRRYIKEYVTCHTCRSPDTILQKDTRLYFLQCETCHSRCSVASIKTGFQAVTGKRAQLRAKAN
UniProt Q13541: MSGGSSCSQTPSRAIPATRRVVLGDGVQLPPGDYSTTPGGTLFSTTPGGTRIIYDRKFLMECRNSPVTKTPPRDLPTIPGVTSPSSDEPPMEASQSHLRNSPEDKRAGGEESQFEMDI
UniProt Q09472, whole entry, looked up: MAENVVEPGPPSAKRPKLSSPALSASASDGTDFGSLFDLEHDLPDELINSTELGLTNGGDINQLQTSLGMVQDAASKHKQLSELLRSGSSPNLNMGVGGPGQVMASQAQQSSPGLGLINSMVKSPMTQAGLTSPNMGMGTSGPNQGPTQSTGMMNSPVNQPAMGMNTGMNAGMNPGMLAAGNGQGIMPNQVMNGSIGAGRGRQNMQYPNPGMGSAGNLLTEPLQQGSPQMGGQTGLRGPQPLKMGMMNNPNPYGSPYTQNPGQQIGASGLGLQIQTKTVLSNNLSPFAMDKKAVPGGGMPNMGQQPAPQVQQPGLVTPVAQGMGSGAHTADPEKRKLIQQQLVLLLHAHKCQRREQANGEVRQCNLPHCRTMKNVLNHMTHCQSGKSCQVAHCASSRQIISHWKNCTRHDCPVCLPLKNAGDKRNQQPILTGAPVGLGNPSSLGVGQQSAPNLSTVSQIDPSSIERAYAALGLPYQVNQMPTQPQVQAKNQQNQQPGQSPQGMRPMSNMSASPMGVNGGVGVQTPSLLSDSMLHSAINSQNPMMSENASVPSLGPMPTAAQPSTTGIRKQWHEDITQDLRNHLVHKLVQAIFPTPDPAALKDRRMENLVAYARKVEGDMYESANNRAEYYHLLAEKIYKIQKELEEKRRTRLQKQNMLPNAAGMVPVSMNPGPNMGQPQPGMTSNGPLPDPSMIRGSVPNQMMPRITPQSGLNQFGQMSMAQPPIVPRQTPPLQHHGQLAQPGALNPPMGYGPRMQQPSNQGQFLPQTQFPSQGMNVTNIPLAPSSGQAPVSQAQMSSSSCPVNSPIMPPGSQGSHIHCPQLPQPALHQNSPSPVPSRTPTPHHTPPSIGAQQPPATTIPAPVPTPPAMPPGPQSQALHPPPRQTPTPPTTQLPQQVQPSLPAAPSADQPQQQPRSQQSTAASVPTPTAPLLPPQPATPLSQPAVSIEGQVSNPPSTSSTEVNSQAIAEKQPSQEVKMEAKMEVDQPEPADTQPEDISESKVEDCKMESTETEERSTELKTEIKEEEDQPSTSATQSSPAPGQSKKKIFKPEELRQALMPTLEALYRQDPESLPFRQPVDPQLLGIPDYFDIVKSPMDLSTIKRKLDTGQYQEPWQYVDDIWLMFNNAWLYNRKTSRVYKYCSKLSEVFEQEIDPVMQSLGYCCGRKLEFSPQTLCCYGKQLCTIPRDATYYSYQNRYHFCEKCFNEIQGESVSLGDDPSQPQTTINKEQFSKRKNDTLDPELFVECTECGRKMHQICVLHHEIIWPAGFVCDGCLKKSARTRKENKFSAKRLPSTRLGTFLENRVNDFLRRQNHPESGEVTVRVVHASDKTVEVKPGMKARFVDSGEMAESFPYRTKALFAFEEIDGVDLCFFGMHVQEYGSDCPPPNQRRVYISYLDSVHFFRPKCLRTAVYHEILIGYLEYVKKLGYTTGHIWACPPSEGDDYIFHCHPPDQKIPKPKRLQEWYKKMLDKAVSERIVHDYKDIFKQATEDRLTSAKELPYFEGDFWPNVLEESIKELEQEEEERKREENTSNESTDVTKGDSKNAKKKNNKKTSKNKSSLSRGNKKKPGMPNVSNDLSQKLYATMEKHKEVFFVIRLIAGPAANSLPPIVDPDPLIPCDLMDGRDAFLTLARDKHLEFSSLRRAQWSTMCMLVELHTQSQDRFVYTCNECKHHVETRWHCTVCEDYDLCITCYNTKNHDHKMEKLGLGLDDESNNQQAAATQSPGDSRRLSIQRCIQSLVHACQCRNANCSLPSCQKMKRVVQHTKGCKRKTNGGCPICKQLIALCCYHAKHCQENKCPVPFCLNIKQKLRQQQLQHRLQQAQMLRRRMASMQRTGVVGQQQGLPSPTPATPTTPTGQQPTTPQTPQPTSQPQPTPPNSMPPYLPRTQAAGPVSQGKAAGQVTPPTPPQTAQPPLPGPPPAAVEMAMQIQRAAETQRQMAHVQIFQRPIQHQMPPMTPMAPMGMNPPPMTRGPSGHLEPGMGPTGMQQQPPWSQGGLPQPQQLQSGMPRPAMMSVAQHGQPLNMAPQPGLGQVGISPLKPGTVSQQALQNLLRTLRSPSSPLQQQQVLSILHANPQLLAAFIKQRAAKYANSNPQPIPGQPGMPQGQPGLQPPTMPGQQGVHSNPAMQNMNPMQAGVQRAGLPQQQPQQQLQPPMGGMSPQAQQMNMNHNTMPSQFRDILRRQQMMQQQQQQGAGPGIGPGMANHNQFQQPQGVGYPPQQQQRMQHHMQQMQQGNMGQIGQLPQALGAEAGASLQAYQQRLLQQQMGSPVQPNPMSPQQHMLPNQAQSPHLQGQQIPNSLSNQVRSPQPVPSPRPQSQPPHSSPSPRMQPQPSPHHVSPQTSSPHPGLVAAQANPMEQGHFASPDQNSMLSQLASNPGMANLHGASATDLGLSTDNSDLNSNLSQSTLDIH
UniProt O75354: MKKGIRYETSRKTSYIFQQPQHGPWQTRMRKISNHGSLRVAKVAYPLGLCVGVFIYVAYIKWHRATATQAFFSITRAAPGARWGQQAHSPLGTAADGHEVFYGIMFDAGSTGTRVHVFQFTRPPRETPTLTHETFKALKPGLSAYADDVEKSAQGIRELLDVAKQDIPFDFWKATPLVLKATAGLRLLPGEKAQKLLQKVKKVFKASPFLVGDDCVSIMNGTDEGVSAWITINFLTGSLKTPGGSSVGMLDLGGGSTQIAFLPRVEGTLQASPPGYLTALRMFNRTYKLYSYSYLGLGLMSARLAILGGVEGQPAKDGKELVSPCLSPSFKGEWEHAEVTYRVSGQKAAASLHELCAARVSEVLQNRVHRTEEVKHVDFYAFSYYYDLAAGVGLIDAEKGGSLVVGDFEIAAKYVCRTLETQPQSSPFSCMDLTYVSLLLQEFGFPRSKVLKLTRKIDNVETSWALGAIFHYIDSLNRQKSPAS
UniProt O15372, whole entry, looked up: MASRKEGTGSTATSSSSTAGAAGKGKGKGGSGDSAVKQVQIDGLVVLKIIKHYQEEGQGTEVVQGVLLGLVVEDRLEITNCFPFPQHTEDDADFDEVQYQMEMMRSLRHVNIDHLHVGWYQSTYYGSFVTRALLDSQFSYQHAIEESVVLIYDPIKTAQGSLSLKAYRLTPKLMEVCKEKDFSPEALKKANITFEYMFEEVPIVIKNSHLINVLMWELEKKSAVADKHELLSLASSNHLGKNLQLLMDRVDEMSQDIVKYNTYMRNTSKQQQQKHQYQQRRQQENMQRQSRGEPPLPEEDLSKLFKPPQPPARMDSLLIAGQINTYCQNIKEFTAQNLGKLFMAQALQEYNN
UniProt O00303, whole entry, looked up: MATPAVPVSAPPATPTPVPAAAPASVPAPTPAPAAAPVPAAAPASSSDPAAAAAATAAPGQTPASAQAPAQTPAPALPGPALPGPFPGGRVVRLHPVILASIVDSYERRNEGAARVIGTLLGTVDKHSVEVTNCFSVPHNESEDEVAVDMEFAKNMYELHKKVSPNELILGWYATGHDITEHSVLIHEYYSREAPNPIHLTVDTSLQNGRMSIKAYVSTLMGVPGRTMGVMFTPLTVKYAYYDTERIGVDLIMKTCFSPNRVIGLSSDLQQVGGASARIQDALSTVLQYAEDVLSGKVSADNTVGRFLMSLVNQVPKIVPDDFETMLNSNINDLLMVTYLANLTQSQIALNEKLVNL
UniProt P63241: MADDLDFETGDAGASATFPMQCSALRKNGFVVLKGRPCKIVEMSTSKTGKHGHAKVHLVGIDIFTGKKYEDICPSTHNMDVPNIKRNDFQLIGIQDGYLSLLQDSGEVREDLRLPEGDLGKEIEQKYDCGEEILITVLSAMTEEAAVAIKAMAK

What was measured:
Assay in all cases: log2 fold change, soluble protein after heating vs DMSO (PISA); higher = thermal stabilisation; K562 cells, 10 uM, 30 min; active = over 0.2 and 3.5 SD of the protein, either way, in both replicates (recomputed)
bafetinib = compound: Cc1ccc(NC(=O)c2ccc(CN3CC[C@H](N(C)C)C3)c(C(F)(F)F)c2)cc1Nc1nccc(-c2cncnc2)n1 [bafetinib]
Outline: (§1)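 Soluble protein was defined as the supernatant after 21,000xg for 90 min. It came from K562 cells at 2×10^6 cells/mL given 10 μM compound for 30 min, heated in aliquots for 3 min across 48°C-58°C, pooled, and extracted in PBS with 0.5% NP-40 at 4°C, and was quantified by TMTpro 16plex LC-MS/MS with equalised channel sums. Thermal stability against control samples, from duplicates, is reported as log2 fold change.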

[1] = compound: Cc1cccc(CC(=O)N2CCc3c2ccc(-c2cn(C)c4ncnc(N)c24)c3F)n1
Outline: as §1

nilotinib = compound: Cc1cn(-c2cc(NC(=O)c3ccc(C)c(Nc4nccc(-c5cccnc5)n4)c3)cc(C(F)(F)F)c2)cn1 [nilotinib]
Outline: as §1

[2] = compound: Cc1nc(Nc2n[nH]c3c2CN(C(=O)N[C@H](CN(C)C)c2ccccc2)C3(C)C)c2sccc2n1
Outline: as §1

dasatinib = compound: Cc1nc(Nc2ncc(C(=O)Nc3c(C)cccc3Cl)s2)cc(N2CCN(CCO)CC2)n1 [dasatinib]
Outline: as §1

[3] = compound: Cc1ncc(-c2ccnc(Nc3ccc(S(C)(=O)=O)cc3)n2)n1C(C)C
Outline: as §1

[4] = compound: Cn1cc(-c2ccc3c(c2)CCN3C(=O)Cc2cccc(C(F)(F)F)c2)c2c(N)ncnc21
Outline: as §1

[5] = compound: Cn1cc(-c2ccc3nnc(C(F)(F)c4ccc5ncccc5c4)n3n2)cn1
Outline: as §1

tipifarnib = compound: Cn1cncc1[C@@](N)(c1ccc(Cl)cc1)c1ccc2c(c1)c(-c1cccc(Cl)c1)cc(=O)n2C [tipifarnib]
Outline: as §1

mubritinib = compound: FC(F)(F)c1ccc(/C=C/c2nc(COc3ccc(CCCCn4ccnn4)cc3)co2)cc1 [mubritinib]
Outline: as §1

Measured: log2 fold change

ENDOG (UniProt Q14249)
inactive: bafetinib -0.024 | [1] 0.057 | nilotinib -0.058 | [2] 0.035 | dasatinib -0.092 | [3] 0.014 | [4] 0.021 | [5] -0.003 | tipifarnib -0.043 | mubritinib 0.121

EMG1 (UniProt Q92979)
inactive: bafetinib 0.032 | [1] -0.02 | nilotinib -0.033 | [2] 0.092 | dasatinib 0.115 | [3] 0.038 | [4] -0.047 | [5] -0.061 | tipifarnib 0.018 | mubritinib -0.01

EIPR1 (UniProt Q53HC9)
inactive: bafetinib 0.021 | [1] 0.003 | nilotinib 0 | [2] -0.043 | dasatinib 0.051 | [3] 0.005 | [4] 0.027 | [5] 0.041 | tipifarnib -0.074 | mubritinib 0.058

EEFSEC (UniProt P57772)
inactive: bafetinib -0.013 | [1] 0.08 | nilotinib 0.031 | [2] -0.021 | dasatinib -0.197 | [3] -0.031 | [4] -0.03 | [5] 0.004 | tipifarnib 0.002 | mubritinib 0.002

ENO2 (UniProt P09104)
inactive: bafetinib -0.002 | [1] 0.016 | nilotinib 0.016 | [2] 0.021 | dasatinib 0.006 | [3] 0.015 | [4] -0.015 | [5] -0.034 | tipifarnib -0.023 | mubritinib 0.015

ELOVL5 isoform 2 (UniProt Q9NYP7)
inactive: bafetinib -0.166 | [1] 0.124 | nilotinib -0.182 | [2] 0.021 | dasatinib -0.147 | [3] -0.054 | [4] 0.063 | [5] 0.011 | tipifarnib -0.204 | mubritinib 0.068

ENOPH1 (UniProt Q9UHY7)
inactive: bafetinib 0.121 | [1] 0.141 | nilotinib -0.044 | [2] 0.02 | dasatinib -0.082 | [3] 0.048 | [4] 0.114 | [5] 0.104 | tipifarnib -0.194 | mubritinib 0.273

EIF2S3 (UniProt P41091)
inactive: bafetinib 0.133 | [1] -0.023 | nilotinib -0.04 | [2] 0.072 | dasatinib 0.043 | [3] 0.014 | [4] -0.081 | [5] -0.052 | tipifarnib 0.019 | mubritinib -0.017

ELP4 isoform 3 (UniProt Q96EB1)
inactive: bafetinib 0.006 | [1] 0.003 | nilotinib 0.02 | [2] 0.031 | dasatinib 0.017 | [3] 0.004 | [4] 0.013 | [5] -0.023 | tipifarnib -0.038 | mubritinib 0.044

EHD1 (UniProt Q9H4M9)
inactive: bafetinib -0.063 | [1] 0.021 | nilotinib -0.068 | [2] -0.008 | dasatinib -0.072 | [3] 0.013 | [4] 0.035 | [5] -0.002 | tipifarnib -0.032 | mubritinib -0.02

EMC3 (UniProt Q9P0I2)
inactive: bafetinib 0.018 | [1] 0.087 | nilotinib -0.001 | [2] -0.005 | dasatinib -0.08 | [3] -0.023 | [4] 0.054 | [5] -0.056 | tipifarnib -0.013 | mubritinib 0.029

Retrieved one by one from the entries so far, 2 records:
EIF2S3 (UniProt P41091)
inactive: bafetinib 0.133 | [1] -0.023 | nilotinib -0.04 | [2] 0.072 | dasatinib 0.043 | [3] 0.014 | [4] -0.081 | [5] -0.052 | tipifarnib 0.019 | mubritinib -0.017

ENOPH1 (UniProt Q9UHY7)
inactive: bafetinib 0.121 | [1] 0.141 | nilotinib -0.044 | [2] 0.02 | dasatinib -0.082 | [3] 0.048 | [4] 0.114 | [5] 0.104 | tipifarnib -0.194 | mubritinib 0.273

Carrying on.

EIF2S1 (UniProt P05198)
inactive: bafetinib 0.08 | [1] -0.021 | nilotinib -0.074 | [2] 0.056 | dasatinib 0.028 | [3] 0.009 | [4] -0.047 | [5] -0.044 | tipifarnib 0.05 | mubritinib -0.026

EIF4EBP2 (UniProt Q13542)
inactive: bafetinib -0.152 | [1] 0 | nilotinib 0.13 | [2] -0.059 | dasatinib 0.047 | [3] 0.007 | [4] 0.087 | [5] 0.141 | tipifarnib 0.098 | mubritinib -0.038

EIF2B5 (UniProt Q13144)
inactive: bafetinib 0.043 | [1] -0.01 | nilotinib -0.022 | [2] -0.064 | dasatinib -0.001 | [3] 0.005 | [4] -0.144 | [5] 0.014 | tipifarnib -0.046 | mubritinib -0.004

EIF1AX (UniProt P47813)
inactive: bafetinib 0.05 | [1] 0.038 | nilotinib 0.029 | [2] 0.052 | dasatinib -0.028 | [3] 0.024 | [4] -0.003 | [5] -0.012 | tipifarnib -0.098 | mubritinib 0.032

EIF4A3 (UniProt P38919)
inactive: bafetinib 0.045 | [1] -0.046 | nilotinib 0.049 | [2] -0.002 | dasatinib 0.01 | [3] 0.082 | [4] 0.002 | [5] 0.012 | tipifarnib -0.019 | mubritinib 0.02

EIF2S2 (UniProt P20042)
inactive: bafetinib 0.041 | [1] 0.008 | nilotinib -0.053 | [2] 0.024 | dasatinib 0.071 | [3] 0.018 | [4] -0.114 | [5] -0.073 | tipifarnib 0.043 | mubritinib -0.017

EPB41 (UniProt P11171)
inactive: bafetinib 0.003 | [1] 0.004 | nilotinib 0.053 | [2] -0.048 | dasatinib -0.004 | [3] -0.044 | [4] 0.017 | [5] 0.023 | tipifarnib 0.011 | mubritinib 0.003

EIF4EBP1 (UniProt Q13541)
inactive: bafetinib -0.027 | [1] -0.067 | nilotinib 0.084 | [2] -0.026 | dasatinib 0.061 | [3] 0.002 | [4] 0.051 | [5] 0.165 | tipifarnib -0.18 | mubritinib -0.005

ELP3 (UniProt Q9H9T3)
inactive: bafetinib -0.016 | [1] -0.004 | nilotinib 0.033 | [2] -0.043 | dasatinib 0.004 | [3] 0.026 | [4] 0.034 | [5] 0.008 | tipifarnib -0.007 | mubritinib 0.016

EIF3E (UniProt P60228)
inactive: bafetinib 0.136 | [1] 0.075 | nilotinib -0.123 | [2] -0.123 | dasatinib -0.119 | [3] 0.049 | [4] -0.048 | [5] -0.054 | tipifarnib -0.126 | mubritinib -0.029

EED, A0A5F9ZI63
inactive: bafetinib 0.019 | [1] -0.024 | nilotinib -0.027 | [2] 0.043 | dasatinib 0.015 | [3] -0.025 | [4] -0.076 | [5] -0.029 | tipifarnib -0.014 | mubritinib -0.066

EP300 (UniProt Q09472)
inactive: bafetinib 0.018 | [1] 0.059 | nilotinib -0.025 | [2] -0.002 | dasatinib -0.012 | [3] -0.023 | [4] 0.034 | [5] -0.132 | tipifarnib -0.055 | mubritinib -0.032

ENTPD6 (UniProt O75354)
inactive: bafetinib 0.032 | [1] -0.016 | nilotinib 0.014 | [2] -0.15 | dasatinib 0.112 | [3] -0.025 | [4] -0.031 | [5] -0.097 | tipifarnib 0.068 | mubritinib -0.098

EIF3H (UniProt O15372)
inactive: bafetinib -0.024 | [1] 0.033 | nilotinib -0.044 | [2] -0.087 | dasatinib -0.022 | [3] 0.006 | [4] -0.054 | [5] 0 | tipifarnib -0.047 | mubritinib 0.017

EIF3F (UniProt O00303)
inactive: bafetinib 0.077 | [1] 0.002 | nilotinib -0.04 | [2] -0.058 | dasatinib -0.051 | [3] 0.03 | [4] -0.029 | [5] -0.07 | tipifarnib -0.053 | mubritinib -0.021

EIF2B4 isoform 2 (UniProt Q9UI10)
inactive: bafetinib 0.082 | [1] -0.012 | nilotinib -0.026 | [2] -0.03 | dasatinib -0.023 | [3] 0.015 | [4] -0.065 | [5] -0.058 | tipifarnib -0.011 | mubritinib 0.008

EIF5A isoform 2 (UniProt P63241)
inactive: bafetinib -0.003 | [1] 0.075 | nilotinib 0.003 | [2] -0.127 | dasatinib -0.124 | [3] 0.035 | [4] 0.035 | [5] 0 | tipifarnib -0.085 | mubritinib 0.034

EIF3B isoform 2 (UniProt P55884)
inactive: bafetinib 0.09 | [1] 0.112 | nilotinib -0.101 | [2] -0.054 | dasatinib -0.046 | [3] 0.023 | [4] -0.111 | [5] -0.069 | tipifarnib -0.05 | mubritinib -0.066
